Test results from PMC9372085.
Results are given in words; binding and its absence hold for the method and conditions named. Binding seen in cells or lysates may run through a third protein. Some entries that bind do so weakly or less than the wild type.

Molecular target: T1, Nono (mouse (endogenous in bone marrow cells)) (UniProt Q99K48)
T1 sequence: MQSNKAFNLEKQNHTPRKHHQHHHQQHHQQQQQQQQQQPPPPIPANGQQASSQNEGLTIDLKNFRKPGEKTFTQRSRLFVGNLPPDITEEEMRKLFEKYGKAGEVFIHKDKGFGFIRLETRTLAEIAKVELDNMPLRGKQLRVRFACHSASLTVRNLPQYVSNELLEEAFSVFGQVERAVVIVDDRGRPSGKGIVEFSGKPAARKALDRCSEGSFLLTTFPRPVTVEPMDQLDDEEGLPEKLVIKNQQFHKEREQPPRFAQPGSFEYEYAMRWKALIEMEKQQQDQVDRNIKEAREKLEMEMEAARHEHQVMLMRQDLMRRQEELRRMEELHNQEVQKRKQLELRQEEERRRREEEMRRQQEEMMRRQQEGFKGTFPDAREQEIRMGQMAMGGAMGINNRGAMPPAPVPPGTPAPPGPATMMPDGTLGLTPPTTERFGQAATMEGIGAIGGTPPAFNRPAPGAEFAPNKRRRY
Test: co-IP; mouse bone marrow cell lysates incubated with anti-Nono antibody or IgG, followed by western blotting

histone methyltransferase Ash1l (from UniProt Q99MY8 1-2958) (enzyme)
binding: binds
